No constants are given. Whether binding was seen depends on the method and setting. Binding can be weak; no strength is given. For some of these results: In cells and extracts the contact can be indirect.

Sequences of proteins named here, by UniProt entry; tags and fusion partners are left off. A change or cut given only in a name is not applied to a line headed by its entry. Residues count along the entry.
UniProt Q9I4P9: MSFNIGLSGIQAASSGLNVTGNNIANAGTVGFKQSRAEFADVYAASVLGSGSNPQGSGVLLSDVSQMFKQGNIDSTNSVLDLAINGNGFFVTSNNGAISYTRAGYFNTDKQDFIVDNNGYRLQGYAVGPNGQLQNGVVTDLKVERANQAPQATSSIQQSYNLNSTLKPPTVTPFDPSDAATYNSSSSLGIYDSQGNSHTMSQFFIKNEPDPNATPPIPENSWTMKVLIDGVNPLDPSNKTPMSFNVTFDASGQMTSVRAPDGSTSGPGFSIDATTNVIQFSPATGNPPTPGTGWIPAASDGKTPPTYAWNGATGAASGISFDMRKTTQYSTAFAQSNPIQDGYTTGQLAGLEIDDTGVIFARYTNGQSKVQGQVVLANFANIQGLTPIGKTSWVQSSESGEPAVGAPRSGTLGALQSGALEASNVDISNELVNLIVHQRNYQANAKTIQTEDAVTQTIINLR
UniProt P56480, residues 47-529: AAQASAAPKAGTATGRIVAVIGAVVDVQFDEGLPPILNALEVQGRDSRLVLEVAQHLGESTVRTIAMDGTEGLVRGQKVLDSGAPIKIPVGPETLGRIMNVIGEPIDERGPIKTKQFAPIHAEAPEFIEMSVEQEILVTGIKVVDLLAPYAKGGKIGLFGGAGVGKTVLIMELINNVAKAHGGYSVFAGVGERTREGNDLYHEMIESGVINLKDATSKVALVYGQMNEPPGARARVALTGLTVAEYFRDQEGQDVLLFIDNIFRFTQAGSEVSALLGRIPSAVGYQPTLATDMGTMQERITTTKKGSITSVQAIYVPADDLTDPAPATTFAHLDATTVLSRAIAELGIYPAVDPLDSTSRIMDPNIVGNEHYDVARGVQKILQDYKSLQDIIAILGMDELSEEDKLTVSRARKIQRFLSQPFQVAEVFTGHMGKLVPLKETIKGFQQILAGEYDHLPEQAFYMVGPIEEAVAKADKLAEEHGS

For assay [1], the target named is recombinant Pseudomonas aeruginosa wild-type flagellar hook protein FlgE (Pseudomonas aeruginosa) (UniProt Q9I4P9). Nature of the assay: pull-down; 500 μg purified His-tagged FlgE or FlgEM on 30 μl Ni-NTA beads, incubated 8 h at 4°C with 200 μg plasma membrane proteins from HUVECs or SVECs; five washes; blot with anti-ATP5B antibody, anti-His as loading control; only the target purified.

Assay [2] concerns the target ATP synthase subunit β (ATP5B), human, ectopic on HUVEC plasma membrane (human (endogenous in HUVEC)) (UniProt P06576). Nature of the assay: flow cytometry on cells; HUVECs and SVECs in ice-cold PBS (2% FBS) with FlgE or FlgEM at 10 μg/ml, 40 min, 4°C, stained with FITC-anti-His; in blocking settings cells pretreated with anti-ATP5B antibodies (50 μg/ml), isotype IgG or Pc-B/Pc-F peptides (50 μM); only the binder purified. Background: In flow cytometry, cells or beads pass a laser one at a time.

The target of assay [3] is ATP synthase subunit β (ATP5B), mouse, ectopic on SVEC plasma membrane (mouse (endogenous in SVEC)) (UniProt P56480). The assay is described as above.

Consider “ATP synthase subunit β (ATP5B), human, ectopic on HUVEC plasma membrane (from UniProt P06576 48-529)”, for which the binding result in assay [1] is given as “binds”.

“ATP synthase subunit β (ATP5B), mouse, ectopic on SVEC plasma membrane (from UniProt P56480 47-529)”: the binding entry in assay [1] was “binds”.

As for “recombinant Pseudomonas aeruginosa wild-type flagellar hook protein FlgE (from UniProt Q9I4P9)”, the binding entry in assay [2] and in assay [3] was “binds” in each case.

Values taken from PMC8593108.
